Test results as given in PubChem BioAssay AID2551 (National Center for Advancing Translational Sciences (NCATS), 2010).
Among all 310,000 compounds or so, about 17,000 (5.5%) were called active. The inconclusive results got no clear call from the source; some entries with a clear call stand among them for comparison. Calls come from the whole dose curve; as a rule, active = well fitted inhibition curve with a large enough effect; inconclusive = small, poorly fitted or top-dose-only effect, or effect the other way; inactive = no such curve, though single readings can be large or run the other way. A potency beside an inconclusive call is a rough fit, not a confirmed value.

By UniProt entry, the sequences of proteins in these tests, tags left out. Where a name states a change or a piece, a line headed by the entry shows the natural chain unless it says otherwise.
UniProt P51450: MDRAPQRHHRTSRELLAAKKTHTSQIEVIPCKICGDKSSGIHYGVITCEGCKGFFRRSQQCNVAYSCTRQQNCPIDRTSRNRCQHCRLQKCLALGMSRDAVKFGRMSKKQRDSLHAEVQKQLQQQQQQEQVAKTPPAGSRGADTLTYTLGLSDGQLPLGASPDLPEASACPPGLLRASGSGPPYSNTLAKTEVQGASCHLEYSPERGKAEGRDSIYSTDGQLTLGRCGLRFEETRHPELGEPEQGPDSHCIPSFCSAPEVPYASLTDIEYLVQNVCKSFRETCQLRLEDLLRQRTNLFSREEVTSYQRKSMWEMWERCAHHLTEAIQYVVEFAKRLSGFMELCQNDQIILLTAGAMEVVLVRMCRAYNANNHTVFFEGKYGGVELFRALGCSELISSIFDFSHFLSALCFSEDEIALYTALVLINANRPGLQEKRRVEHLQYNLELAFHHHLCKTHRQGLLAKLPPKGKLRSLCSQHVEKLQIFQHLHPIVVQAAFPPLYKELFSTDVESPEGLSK

Each compound was assayed against Nuclear receptor ROR-gamma (Mus musculus) (UniProt P51450) (assay: qHTS for inhibitors of ROR gamma transcriptional activity). Conditions: Drosophila S2 Gal4-RORgamma UAS-luciferase reporter, 20 h; activity change, negative = inhibition: at 53.6 µM (top of the series).
How it was run: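 ROR gamma transcriptional activity was tracked as Gal4-UAS luciferase output in stably transfected Drosophila Schneider cells, with compound added 1 hr before 700 uM copper sulfate induction and a 20 hr ambient-temperature incubation.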
% is set by controls: 0 for no effect and ±100 for the full control effect; potency is the fitted concentration of half-maximal effect.
Note: nearly all actives have a fitted effect of over 60% in size.

Potency, inactive:
CCN1CCCC(OC(=O)C(c2ccccc2)c2ccccc2)C1 (stereo unspecified), Cc1ccc(C(=O)NCc2ccc(N3CCN(C)CC3)cc2)cc1C, Cc1cc(SCC(=O)NC2CCCC2)nc2ccccc12, CCOC(=O)CC1C(=O)NCCN1Cc1cccs1 (stereo unspecified), COCCn1c(=O)c(C)nc2cnc(N3CCOCC3)nc21, COC(=O)C1=C(N)Oc2cc(C)n(C)c(=O)c2C1c1ccc(Cl)cc1 (stereo unspecified), COC(=O)C1=C(CSc2nc3c(cc2C#N)CN(C)CC3)OC(N)=C(C#N)C1c1ccc(F)cc1 (stereo unspecified), O=C1NC(=S)N/C1=C\c1ccc(N2CCOCC2)cc1, O=C(O)CSc1nnc(COc2ccc(Br)cc2)n1-c1ccccc1, Cc1ccccc1CSc1nnc([C@@H]2CCCN2)o1, CC(=O)Nc1ccc(C(=O)Nc2nc(-c3cccnc3)cs2)cc1, O=C(CSc1nnc(-c2ccc(O)cc2)o1)Nc1ccc2c(c1)OCCO2, CCCc1cc(=O)oc2cc(OCC(=O)Nc3cc(C)on3)ccc12, O=C(OCc1ccccc1)[C@@H]1COC(c2ccc(Br)cc2)=N1, O=C(CCNS(=O)(=O)c1cccc2nonc12)NC1CCCCCC1, CCOC(=O)c1[nH]c2ccc(OC)cc2c1NC(=O)c1cccc(OC)c1, C=CCNC(=O)Nc1ccc(F)c(Cl)c1, COc1cc([N+](=O)[O-])ccc1NC(=O)NCC1CCN(Cc2ccc(Cl)cc2)CC1, O=S(=O)(c1cccc(C(F)(F)F)c1)N1CCC(CO)(CCCc2ccccc2)CC1, O=C(c1ccc2c(c1)OCO2)N1CCN(c2ccc(F)cc2)CC1, CCn1c(/C=C\c2ccccc2C)nc2ccccc2c1=O, N=c1n(CCN2CCCCC2)c2ccccc2n1CC(O)c1ccc(Cl)c(Cl)c1 (stereo unspecified), CCOC(=O)N/N=C(/C)c1ccc([N+](=O)[O-])o1, CCCCCn1c(N)c(-c2nc3ccccc3s2)c2c([N+](=O)[O-])nn(C)c(=O)c21

Potency, active:
CCCCCC(=O)Nc1nc2ccccc2[nH]1 6.31 µM, O=C1CCc2cc(S(=O)(=O)N3CCC(C(=O)NCc4ccccn4)CC3)ccc2N1 12.6 µM, CCN(C(=S)NC(=O)c1ccccc1Br)C1CCCCC1 1 µM, Cc1ccccc1NC(=S)NC(=O)Cc1ccc(Cl)cc1 7.94 µM, CC(C)CC(=O)NC(=S)Nc1ccc(N2CCCC2)c(Cl)c1 0.398 µM, COC(=O)c1ccc(C(=O)OC)c(-n2c(=O)c3ccccc3c3ccccc3c2=O)c1 10 µM, S=C(Nc1ccc(Cl)cc1)NC1CCN(Cc2ccccc2)CC1 17.8 µM, COc1ccc2c(c1)C1=C(CC2)C(c2ccc(C)cc2)NC(=S)N1 (stereo unspecified) 0.708 µM, CC(C)c1ccc2c(c1)CC[C@H]1[C@](C)(CN)CCC[C@]21C 11.2 µM, CCCCC(=O)NC(=S)Nc1ccc(S(=O)(=O)N2CCCC2)cc1 12.6 µM, O=[N+]([O-])c1cc(Cl)cc(/C=N/Nc2nc3ccccc3s2)c1O 0.891 µM, Cc1ccc(N=Cc2cc(Br)cc(Cl)c2O)cc1 11.2 µM, O=C(CSc1nnc(-c2ccccc2)c(-c2ccccc2)n1)N1CCc2ccccc21 3.16 µM

Potency, inconclusive:
CCCCCOCC1CC(C/C(C)=N/NC(N)=S)C(=O)O1 (stereo unspecified) 35.5 µM [inhibitor, single point], Cc1ccc(O)c(NC2=C(Cl)C(=O)N(Cc3ccccc3)C2=O)c1 35.5 µM [inhibitor, single point], COc1ccc(C(=O)NN(C)c2nc(-c3ccccc3)cc(C)c2S(C)(=O)=O)cc1 31.6 µM [activator, single point], CCC1(C)OC(=O)N2CCc3c(C)[nH]c4c(C)ccc(c34)C21C (stereo unspecified) 0.0316 µM [inhibitor, full curve, poor fit], CCCOC(=O)Nc1ccc(S(=O)(=O)Nc2ncccn2)cc1 7.08 µM [activator, partial curve], c1cncc(CSc2nnc3ccc(-c4cccs4)nn23)c1 3.16 µM [inhibitor, single point], Cc1ccc(C(=O)Nc2ccc(C)c(S(=O)(=O)Nc3ccccc3Cl)c2)s1 15.8 µM [activator, single point], CN(CC(=O)Nc1cc(S(=O)(=O)N2CCCC2)ccc1Cl)Cc1cccs1 22.4 µM [activator, partial curve], CC(=O)Oc1ccc2c(=O)c(-c3ccccc3)coc2c1 5.62 µM [activator, full curve], COc1ccc(-c2cc3ccc(OCC(=O)NCC4CCC(C(=O)O)CC4)cc3oc2=O)cc1 (stereo unspecified) 10 µM [inhibitor, partial curve], CCC(=O)c1ccc(OCC(O)Cn2cnc3ccccc32)cc1 (stereo unspecified) 14.1 µM [activator, single point], O=C(OCC(=O)N1CCc2ccccc21)C1=COCCO1 14.1 µM [inhibitor, single point], COc1ccc(NC(=O)Nc2ccc(Cc3ccncc3)cc2)cc1OC 11.2 µM [activator, partial curve], Cc1ccc2nc(C3CCCN(C(=S)Nc4ccccc4C)C3)[nH]c2c1 (stereo unspecified) 25.1 µM [inhibitor, single point], CCO[C@H]1OC(C(=O)N2CCN(Cc3ccc4c(c3)OCO4)CC2)=C[C@@H](C2CCCCC2)[C@@H]1CCCO 25.1 µM [activator, single point], NC(=O)NC(=O)C[n+]1cccc(/C=N/O)c1 35.5 µM [inhibitor, single point], COc1ccc(CCNC(=O)c2cccc(S(=O)(=O)N3CCCCC3)c2)cc1 11.2 µM [activator, single point], O=C(N/N=C/c1ccc2cccc(OCc3ccccc3)c2n1)c1ccc(Cl)cc1 22.4 µM [inhibitor, single point], O=C(COc1ccccc1[N+](=O)[O-])Nc1cccc(Cl)c1N1CCOCC1 11.2 µM [activator, partial curve], Cc1c(C(=O)N2CCc3ccccc3C2)oc2ccc(S(=O)(=O)N3CCCCCC3)cc12 31.6 µM [activator, single point], Cc1cc(C)c2c(-n3cccc3)c(NC(=O)OCc3ccccc3)sc2n1 35.5 µM [inhibitor, single point], O=S(=O)(Nc1cccc(Cl)c1)c1ccc(-n2cccn2)cc1 17.8 µM [activator, single point], CCC(C)C(=O)Nc1cc(Cl)ccc1C(=O)O (stereo unspecified) 14.1 µM [activator, single point], CCCc1cc2c(cc1NC(=O)c1ccc(C)cc1)OCO2 5.62 µM [activator, single point], COc1cc(NC(=O)c2ccc(Br)o2)ccc1NC(=O)C(C)C 35.5 µM [activator, single point], Cc1nn(CC(=O)Nc2ccc(N(C)C)cc2)c(C)c1[N+](=O)[O-] 35.5 µM [inhibitor, single point], Cc1ccc(Nc2nc(-c3ccc(S(=O)(=O)N4CCOCC4)cc3)cs2)cc1Cl 15.8 µM [inhibitor, single point], O=C(O)c1cc2ccccc2c(N=Nc2cccnc2)c1O 35.5 µM [inhibitor, single point], CCOc1ccccc1/C=C/c1nc2ccccc2[nH]c1=O 35.5 µM [activator, single point], COc1ccc(CC(=O)Nc2ccc3c(c2)CCC3)cc1S(=O)(=O)N1CCOCC1 10 µM [activator, partial curve], c1ccc(-n2cnc3cc(NCc4cccs4)ccc32)cc1 35.5 µM [inhibitor, single point], Brc1ccccc1/C=N/Nc1ccccn1 35.5 µM [inhibitor, single point], O=C(Nc1nc2c(s1)CCc1ccccc1-2)c1ccco1 35.5 µM [activator, single point], COc1ccccc1CNc1nc(-c2ccccc2CN(C)C)nc2ccccc12 1.26 µM [inhibitor, partial curve, poor fit], O=C(COc1ccc(Cl)cc1)NCCS(=O)(=O)N1CCN(c2ccccc2F)CC1 35.5 µM [activator, single point], CC(=C/c1ccco1)/C=N/NC(=O)c1nnn(-c2nonc2N)c1CN(C)C 15.8 µM [inhibitor, single point], O=C(NCc1ccco1)C1CCCN(S(=O)(=O)c2cnc[nH]2)C1 (stereo unspecified) 1.78 µM [inhibitor, single point], CCN(CC)CC(O)COc1ccccc1C(=O)CCc1ccccc1 (stereo unspecified) 2.51 µM [inhibitor, single point]

Activity change, negative = inhibition, inactive:
COC(=O)[C@@H]1CC[C@H](C)[C@@H](c2ccc(C)cc2)N1C(=O)c1ccc(/C=N\O[C@@H]2O[C@H](COC(C)=O)[C@H](OC(C)=O)[C@H](OC(C)=O)[C@H]2OC(C)=O)cc1 6.61% [at 10 µM]
